# Test results from US7205162B1, “Artificial antibodies, method of producing the same and use thereof” (priority 1995, dated 2007).
# Experiment: Scatchard plot analysis with radio-labelled ligand, anti-diazepam polymer
compound,measurement,value
CN1C(=O)CN=C(c2ccccc2)c2cc(Cl)ccc21 [Diazepam],"population of sites, high affinity",0.0071 µmol/g
same,"population of sites, low affinity",0.51 µmol/g
